From patent US20180271923A1, “COMPOSITION FOR PREVENTING OR TREATING MENOPAUSAL DISORDERS, CONTAINING TETRAGONIA TETRAGONOIDES (PALL.) KUNTZE EXTRACT” (Korea Institute of Oriental Medicine, priority 2015, published 2018)
Marks after values point to notes of the source that are not given here.

Tested on: ovariectomized rats
Assay: Evaluation on menopause inducement in ovariectomized rats (weight of uterus, serum 17β-estradiol by RIA kit)
Format: in vivo
Settings: n = 12, means ± SD
Method: Rats were ovariectomized to induce menopause, and weight of uterus and serum levels of 17β-estradiol that is a kind of female hormones were measured to determine whether menopause was induced in the rats. Specifically, the rats were sacrificed, and then their uteri were removed and weighed. A serum concentration of 17β-estradiol was measured with an RIA kit (Linco Research Inc.).

For `C[C@]12CC[C@@H]3c4ccc(O)cc4CC[C@H]3[C@@H]1CC[C@@H]2O` [Positive-control, 17β-estradiol], the “Serum levels of 17β-estradiol” value was 7.5 ± 1.2^a pg/ml.
